{"source": "PubChem BioAssay AID1259424 (University of Nebraska Medical Center, 2018)", "purpose": "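Seek colon cancer survival genes behaving like KSR1, using a six-gene signature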 (primary screen)", "cells": "human HCT116 colon cancer cells", "reagent": "siRNA pool against human genes, 50 nM", "read-out": "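Six signature mRNAs by branched-DNA multiplex assay, scaled to two housekeeping genes and non-targeting median, log2; matched to mean KSR1 knockdown profile by Pearson correlation and euclidean distance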", "scale": "mean correlation with KSR1 profile: higher = expression change more like KSR1 knockdown", "note": "This is an unselected part of about 14,000 reagents tested. 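Higher correlation or smaller distance means closer resemblance to KSR1 loss; control wells, including KSR1 knockdowns, recur on many plates.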 Reagents against one gene are numbered here. Not all columns of the deposit are shown. Not stated in the record: the time to read-out."}
{"gene knocked down": "SPANXB1 (SPANX family member B1)", "reagent no.": 1, "mean correlation with KSR1 profile": 0.536}
{"gene knocked down": "SPANXB1 (SPANX family member B1)", "reagent no.": 2, "mean correlation with KSR1 profile": 0.489}
{"gene knocked down": "RPS8 (ribosomal protein S8)", "reagent no.": 1, "mean correlation with KSR1 profile": -0.124}
{"gene knocked down": "CYP17A1 (cytochrome P450 family 17 subfamily A member 1)", "reagent no.": 1, "mean correlation with KSR1 profile": 0.00948}
{"gene knocked down": "PLA2G12B (phospholipase A2 group XIIB)", "reagent no.": 1, "mean correlation with KSR1 profile": 0.893}
{"gene knocked down": "STOM (stomatin)", "reagent no.": 1, "mean correlation with KSR1 profile": -0.202}
{"gene knocked down": "BRME1 (break repair meiotic recombinase recruitment factor 1)", "reagent no.": 1, "mean correlation with KSR1 profile": 0.0629}
{"gene knocked down": "RDH11 (retinol dehydrogenase 11)", "reagent no.": 1, "mean correlation with KSR1 profile": -0.838}
{"gene knocked down": "SLC2A5", "reagent no.": 1, "mean correlation with KSR1 profile": -0.282}
{"gene knocked down": "ADIRF (adipogenesis regulatory factor)", "reagent no.": 1, "mean correlation with KSR1 profile": -0.422}
{"gene knocked down": "PEX16 (peroxisomal biogenesis factor 16)", "reagent no.": 1, "mean correlation with KSR1 profile": 0.335}
{"gene knocked down": "SMARCAD1 (SNF2 related chromatin remodeling ATPase with DExD box 1)", "reagent no.": 1, "mean correlation with KSR1 profile": 0.218}
{"gene knocked down": "CPOX (coproporphyrinogen oxidase)", "reagent no.": 1, "mean correlation with KSR1 profile": 0.472}
{"gene knocked down": "TACR2 (tachykinin receptor 2)", "reagent no.": 1, "mean correlation with KSR1 profile": 0.262}
{"gene knocked down": "POLE4 (DNA polymerase epsilon 4, accessory subunit)", "reagent no.": 1, "mean correlation with KSR1 profile": -0.668}
{"gene knocked down": "CAVIN2 (caveolae associated protein 2)", "reagent no.": 1, "mean correlation with KSR1 profile": 0.823}
{"gene knocked down": "NHP2 (NHP2 ribonucleoprotein)", "reagent no.": 1, "mean correlation with KSR1 profile": -0.498}
{"gene knocked down": "TBP (TATA-box binding protein)", "reagent no.": 1, "mean correlation with KSR1 profile": -0.153}
{"gene knocked down": "CLN5 (CLN5 lysosomal BMP synthase)", "reagent no.": 1, "mean correlation with KSR1 profile": 0.222}
{"gene knocked down": "ADD2 (adducin 2)", "reagent no.": 1, "mean correlation with KSR1 profile": 0.335}
{"gene knocked down": "GPR65 (G protein-coupled receptor 65)", "reagent no.": 1, "mean correlation with KSR1 profile": 0.724}
{"gene knocked down": "PECR (peroxisomal trans-2-enoyl-CoA reductase)", "reagent no.": 1, "mean correlation with KSR1 profile": 0.755}
{"gene knocked down": "BPGM (bisphosphoglycerate mutase)", "reagent no.": 1, "mean correlation with KSR1 profile": -0.112}
{"gene knocked down": "RUNX1-IT1 (RUNX1 intronic transcript 1)", "reagent no.": 1, "mean correlation with KSR1 profile": -0.0458}
{"gene knocked down": "PTP4A1 (protein tyrosine phosphatase 4A1)", "reagent no.": 1, "mean correlation with KSR1 profile": 0.772}
{"gene knocked down": "SRR (serine racemase)", "reagent no.": 1, "mean correlation with KSR1 profile": -0.27}
{"gene knocked down": "CAMK1D (calcium/calmodulin dependent protein kinase ID)", "reagent no.": 1, "mean correlation with KSR1 profile": -0.165}
{"gene knocked down": "EIF2S3 (eukaryotic translation initiation factor 2 subunit gamma)", "reagent no.": 1, "mean correlation with KSR1 profile": -0.155}

4 entries already listed, arranged by “mean correlation with KSR1 profile”, highest first:
{"gene knocked down": "BRME1 (break repair meiotic recombinase recruitment factor 1)", "reagent no.": 1, "mean correlation with KSR1 profile": 0.0629}
{"gene knocked down": "SLC2A5", "reagent no.": 1, "mean correlation with KSR1 profile": -0.282}
{"gene knocked down": "ADIRF (adipogenesis regulatory factor)", "reagent no.": 1, "mean correlation with KSR1 profile": -0.422}
{"gene knocked down": "RDH11 (retinol dehydrogenase 11)", "reagent no.": 1, "mean correlation with KSR1 profile": -0.838}
